This is an account of results in PubChem BioAssay AID493014 (National Center for Advancing Translational Sciences (NCATS), 2011).

This test can be described thus: qHTS Assay to Find Inhibitors of Chronic Active B-Cell Receptor Signaling. To be noted: ABC-DLBCL IkBa-CBG/CBR reporter, luminescence ratio (green luciferase fused to IkBa over red control in TMD8 lymphoma cells), 4 h. Put shortly:
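Compounds up to 46 uM were incubated four hours with TMD8 cells whose green CBG68 luciferase is fused to IkappaBalpha; red CBR luminescence normalised the signal, and concentration-effect curves were fitted to fusion, red and ratio data.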

[1] abbreviates: measured here: CBR red luminescence, cell number.
The mark [2] stands for this setting: measured here: IkBa-CBG green luminescence.

The other results are listed elsewhere or left out. Further columns of the screen follow, without active or inactive calls. Compounds called inactive in the main read-out are mostly missing here. Potencies come from curve fits of mixed quality, noted in brackets.

The term AC50 denotes the midpoint of the concentration-response curve, whichever way the signal moves. For `O=C(NC(=Nc1nc2ccccc2o1)NC(=O)c1ccccc1)c1ccccc1`, the AC50 under setting [1] was 23.1 µM [falling, single point].
Regarding `COc1ccc(-c2nnc(SCc3nnc(-c4ccccc4)o3)n2C)cc1OC`, the concentration at half-maximal activity (AC50) under setting [1] is 11.2 µM [rising, partial curve, poor fit].
Still for that read-out and setting: then `O=C(COc1ccccc1Br)Nc1ccc2c(c1)OCCCO2`, with 10 µM [falling, partial curve, poor fit].
As to `CCOC(=O)CCCC(=O)Nc1ncnc2c1C(c1ccccc1)c1c(ccc3ccccc13)O2` (centres undefined), the concentration at half-maximal activity (AC50) under setting [1] was 20.6 µM [falling, single point].
On the same count and under the same terms, then `CC1=NN(c2ccccc2)C(=O)/C1=C\C=C1\N(C)c2ccccc2C1(C)C`, with 2.06 µM [rising, partial curve, poor fit]; and `CN(C)CCCN1CC(C(=O)O)CC1=O` (centres undefined), with 0.0316 µM [falling, full curve, poor fit].
Still for that read-out and setting: the figure for `Cc1ccsc1/C=C1\SC(N2CC(C)OC(C)C2)=NC1=O` (centres undefined) is 16.4 µM [rising, partial curve, poor fit]; for `CC(=O)c1ccc(N2CCN(S(=O)(=O)c3c(C)[nH]c(C)c3C(=O)N3CCCCC3)CC2)cc1` it is 3.16 µM [rising, partial curve, poor fit].
Still for that read-out and setting: the figure for `O=C(NN/C(=N/S(=O)(=O)c1ccc(Cl)cc1)c1ccccc1)c1ccc(O)cc1` is 14.6 µM [falling, partial curve].
Consider `O=C(O)c1cc(N/N=C/c2cccc3ccccc23)ccc1Cl`, for which the AC50 under setting [1] is 0.316 µM [falling, full curve, poor fit].
For the compound `Cc1ccccc1NC(=O)c1ccc(S(=O)(=O)N2CCCC2)cc1`, under setting [1], the AC50 is 35.5 µM [falling, single point].
The same measure, in the same setting: then `O=C(C1CCC(CNS(=O)(=O)c2cccs2)CC1)N1CCN(c2ccc(Cl)cc2)CC1` (centres undefined), with 6.31 µM [falling, single point]; and `CN(C)c1ccc(CNc2ncnc3sccc23)cc1`, with 0.447 µM [falling, full curve, poor fit].
On the same count and under the same terms, then `Cc1cc(N=Nc2c(O)c3ccccc3[nH]c2=O)ccc1N=Nc1ccc(C(=O)N(C)C)cc1`, with 7.94 µM [falling, partial curve].
On the same count and under the same terms, the figure for `C/C(=N/NC(=O)c1ccc2c(c1)OCO2)c1cccc(NC(=O)C(C)(C)C)c1` is 10 µM [falling, partial curve]; for `CC(C)c1ccc(NC(=O)c2cc(S(=O)(=O)NC3CCCCC3)ccc2F)cc1` it is 35.5 µM [rising, single point].
Turning to `Cc1cc(NC(=O)C(C)SCC(=O)OC(C)C(=O)Nc2ccc(F)cc2Cl)no1` (centres undefined), the half-maximal activity concentration (AC50) under setting [1] was 13 µM [rising, partial curve, poor fit].
Still for that read-out and setting: then `Cc1ccc(OCC(O)CN2CCOCC2)c(C)c1` (centres undefined), with 3.55 µM [falling, partial curve, poor fit]; and `CCCCn1nc(C(=O)NNC(=O)c2ccncc2)c2ccccc2c1=O`, with 0.794 µM [rising, full curve, poor fit].
The same measure, in the same setting: then `COc1ccc(Cl)cc1NC(=O)COC(=O)CC(C)(C)CC1=NS(=O)(=O)c2ccccc2N1`, with 3.55 µM [rising, single point].
The same measure, in the same setting: the figure for `COc1ccccc1CNC(=O)C(=O)NCCC1CCCCN1S(=O)(=O)c1ccc(C)cc1` (centres undefined) is 14.6 µM [falling, single point]; for `COc1ccccc1Nc1nc(C)cc(=O)[nH]1` it is 3.26 µM [rising, partial curve, poor fit].
Take `COc1cccc(CNC(=O)CCC2CCCN(C(=O)c3cccc4c(C)c(C)[nH]c34)C2)c1` (centres undefined): the concentration at half-maximal activity (AC50) under setting [1] is 35.5 µM [falling, single point].
The same measure, in the same setting: the figure for `O=C(CN1CCCCCC1)Nc1ccc(Br)cn1` is 35.5 µM [falling, single point].
With `CCCNC(=O)c1ccc(N2CCC3(CC2)CC(c2cccc(Br)c2)=NO3)c(NC(=O)c2cccc(OC)c2)c1`, under setting [1], the half-maximal activity concentration (AC50) was 1.03 µM [rising, full curve, poor fit].
Still for that read-out and setting: the figure for `CCOC(=O)c1c(C)[nH]c(C)c1S(=O)(=O)N1CCCC(C(=O)Nc2ccc(OC)c(OC)c2)C1` (centres undefined) is 2.82 µM [rising, full curve]; for `CCOCCn1c(=O)c2c(nc3n2CC(C)CN3CCc2ccccc2)n(C)c1=O` (centres undefined) it is 3.55 µM [falling, partial curve, poor fit]; for `O=C1CC2(CCN(C(=O)COc3ccc(Cl)cc3)CC2)Oc2ccccc21` it is 0.82 µM [falling, partial curve, poor fit].
Still for that read-out and setting: the figure for `N=C1SCC(=O)N1c1nc(-c2ccccc2)cs1` is 0.1 µM [rising, full curve, poor fit]; for `Cc1ccc(-n2ncc3c2CC(C)(C)CC3NC(=O)CN2CCCC2=O)cc1` (centres undefined) it is 20 µM [rising, single point]; for `Cc1cccc(C(C#N)c2ccc(Cl)nn2)c1` (centres undefined) it is 12.6 µM [falling, single point].
Regarding `COc1ccccc1-c1oc2ccccc2c1-c1ccc2cc[nH]c2c1`, under setting [2], the AC50 was 14.6 µM [rising, partial curve, poor fit].
As for `COc1ccc(OCC(=O)Nc2ncc3c(n2)CC(C)(C)CC3=O)cc1`, the half-maximal activity concentration (AC50) under setting [1] is 35.5 µM [falling, single point].
Regarding `COCCCNC(=O)C[C@H]1C[C@H](C(=O)N2CCCCC2)[C@@]2(C)c3[nH]c4ccc(Cl)cc4c3CCN2C1=O`, the half-maximal activity concentration (AC50) under setting [2] is 32.6 µM [falling, partial curve, poor fit].
Take `COc1ccc(C(C)NC(=O)c2ccccc2)cc1` (centres undefined): the AC50 under setting [1] is 0.00461 µM [falling, full curve, poor fit].
The same measure, in the same setting: then `CC1CCCN(S(=O)(=O)c2ccc(NC(=O)C3CCN(C(=O)c4ccco4)CC3)cc2)C1` (centres undefined), with 6.31 µM [rising, single point].
`CCN(c1ccccc1)S(=O)(=O)c1csc(C(N)=O)c1`: the concentration at half-maximal activity (AC50) under setting [1] was 3.16 µM [rising, single point].
Turning to `COc1ccccc1-c1nc2n(n1)C(c1ccc(Cl)cc1)C(C(N)=O)=C(C)N2` (centres undefined), the half-maximal activity concentration (AC50) under setting [1] was 10.3 µM [falling, partial curve].
As to `O=C1C=CC(=O)C(C2=C3C(=O)N(CCc4ccccc4)CC(=O)N3CCC2)=C1`, the AC50 is, setting by setting: under setting [1], 7.31 µM [falling, partial curve]; under setting [2], 20.6 µM [rising, partial curve, poor fit].
Take `CC1(OC(=O)C2CCCC2)C(=O)C=C2C=C(c3ccsc3)N(CCc3ccccn3)C=C2C1=O` (centres undefined): the AC50 under setting [1] is 0.0891 µM [rising, full curve, poor fit].
Still for that read-out and setting: the figure for `O=C(CCc1ccc(O)c(O)c1)N/N=C/c1ccc2c(c1)OCO2` is 11.2 µM [falling, partial curve, poor fit].
Still for that read-out and setting: then `Cc1nn(-c2ccc(Cl)cc2)c2sc(C(=O)c3c(N)n(C)c(=O)n(C)c3=O)cc12`, with 35.5 µM [rising, single point].
Same read-out and setting: then `CCc1noc(C)c1C(=O)N1CCC(CCC(=O)Nc2cccc(OC)c2)CC1`, with 7.08 µM [falling, partial curve, poor fit]; and `COC(=O)c1sccc1NC(=O)CSc1ccccc1NC(=O)CNC(C)C`, with 2.51 µM [falling, partial curve, poor fit].
For the compound `O=C(Nc1cccc(F)c1)c1ccc2ncsc2c1`, under setting [1], the half-maximal activity concentration (AC50) was 31.6 µM [falling, single point].
The same measure, in the same setting: the figure for `Nc1nnc(SC2CC(=O)N(c3ccccc3)C2=O)s1` (centres undefined) is 11.6 µM [falling, partial curve].
On to `O=C(NN=Cc1ccc(F)c(F)c1)c1ccc(NS(=O)(=O)c2cccs2)cc1`, for which the AC50 under setting [1] is 4.61 µM [falling, full curve].
On to `COc1cccc(/C=N/NC(=S)NC2CC3CCC2C3)c1OC` (centres undefined), for which, under setting [1], the AC50 is 0.891 µM [rising, full curve].
Regarding `CCOC(=O)c1cnc2nc(N3CCOCC3)nn2c1N`, the AC50 under setting [1] is 11.2 µM [falling, partial curve, poor fit].
Same read-out and setting: the figure for `c1ccc2oc(-c3csc(NCC4CCCO4)n3)cc2c1` (centres undefined) is 8.91 µM [falling, partial curve].
For `O=c1c2ccccc2c(/C=N/c2ncn[nH]2)c(O)n1Cc1ccccc1`, under setting [1], the AC50 is 11.2 µM [falling, partial curve, poor fit].
As to `CCN1C(=O)CC(c2ccccc2)N(C2CCCC2)c2nc(Nc3ccc(C(=O)NC4CCN(C)CC4)cc3OC)ncc21` (centres undefined), the AC50 was 29.1 µM [rising, single point] under setting [1] and 32.6 µM [falling, partial curve, poor fit] under setting [2].
`COC(=O)[C@@H](NC(=O)Nc1ccc(OC)cc1)C(C)C`: the AC50 under setting [1] is 0.82 µM [falling, partial curve, poor fit].
On the same count and under the same terms, the figure for `CN(CC(=O)NCCc1ccc(Cl)cc1)S(=O)(=O)c1cccs1` is 14.1 µM [falling, single point]; for `CCOC(=O)c1ccc2nc(NC(=O)c3ccco3)sc2c1` it is 0.411 µM [falling, full curve]; for `CN(C)CCNc1nc2sc3c(c2c(=O)n1CCc1ccccc1)CCCCC3` it is 2.82 µM [falling, full curve, poor fit].
In the case of `O=C(Nc1cccnc1)c1cccs1`, the AC50 under setting [1] was 14.6 µM [rising, partial curve, poor fit].
Still for that read-out and setting: the figure for `CCCC1(C(=O)OC)NC(c2ccc(OC)c(OC)c2)C2C(=O)N(c3cccc(C(C)=O)c3)C(=O)C21` (centres undefined) is 10 µM [rising, partial curve].
`N#Cc1cc(C(=O)c2cc(F)ccc2O)cn(-c2nccs2)c1=O`: under setting [2], the AC50 was 3.66 µM [rising, full curve, poor fit].
For `Cc1cccc(NC(=S)N2CCC(O)CC2)c1C`, the AC50 under setting [1] is 7.08 µM [rising, full curve, poor fit].
Still for that read-out and setting: the figure for `CCOc1ccc(-n2nnnc2SCC(=O)Nc2cccc(O)c2)cc1` is 11.2 µM [falling, partial curve]; for `c1cc(-c2cn(C[C@H]3CC[C@@H]([C@@H]4CC[C@H](Cn5cc(-c6ccsc6)nn5)O4)O3)nn2)cs1` it is 11.2 µM [falling, partial curve, poor fit].
